Measurements reported in publication doi:10.1101/2022.08.30.505823 (bioRxiv, 2022).

Amino acid sequences for entries named in this document (tags omitted).
UniProt Q9NR09, whole entry: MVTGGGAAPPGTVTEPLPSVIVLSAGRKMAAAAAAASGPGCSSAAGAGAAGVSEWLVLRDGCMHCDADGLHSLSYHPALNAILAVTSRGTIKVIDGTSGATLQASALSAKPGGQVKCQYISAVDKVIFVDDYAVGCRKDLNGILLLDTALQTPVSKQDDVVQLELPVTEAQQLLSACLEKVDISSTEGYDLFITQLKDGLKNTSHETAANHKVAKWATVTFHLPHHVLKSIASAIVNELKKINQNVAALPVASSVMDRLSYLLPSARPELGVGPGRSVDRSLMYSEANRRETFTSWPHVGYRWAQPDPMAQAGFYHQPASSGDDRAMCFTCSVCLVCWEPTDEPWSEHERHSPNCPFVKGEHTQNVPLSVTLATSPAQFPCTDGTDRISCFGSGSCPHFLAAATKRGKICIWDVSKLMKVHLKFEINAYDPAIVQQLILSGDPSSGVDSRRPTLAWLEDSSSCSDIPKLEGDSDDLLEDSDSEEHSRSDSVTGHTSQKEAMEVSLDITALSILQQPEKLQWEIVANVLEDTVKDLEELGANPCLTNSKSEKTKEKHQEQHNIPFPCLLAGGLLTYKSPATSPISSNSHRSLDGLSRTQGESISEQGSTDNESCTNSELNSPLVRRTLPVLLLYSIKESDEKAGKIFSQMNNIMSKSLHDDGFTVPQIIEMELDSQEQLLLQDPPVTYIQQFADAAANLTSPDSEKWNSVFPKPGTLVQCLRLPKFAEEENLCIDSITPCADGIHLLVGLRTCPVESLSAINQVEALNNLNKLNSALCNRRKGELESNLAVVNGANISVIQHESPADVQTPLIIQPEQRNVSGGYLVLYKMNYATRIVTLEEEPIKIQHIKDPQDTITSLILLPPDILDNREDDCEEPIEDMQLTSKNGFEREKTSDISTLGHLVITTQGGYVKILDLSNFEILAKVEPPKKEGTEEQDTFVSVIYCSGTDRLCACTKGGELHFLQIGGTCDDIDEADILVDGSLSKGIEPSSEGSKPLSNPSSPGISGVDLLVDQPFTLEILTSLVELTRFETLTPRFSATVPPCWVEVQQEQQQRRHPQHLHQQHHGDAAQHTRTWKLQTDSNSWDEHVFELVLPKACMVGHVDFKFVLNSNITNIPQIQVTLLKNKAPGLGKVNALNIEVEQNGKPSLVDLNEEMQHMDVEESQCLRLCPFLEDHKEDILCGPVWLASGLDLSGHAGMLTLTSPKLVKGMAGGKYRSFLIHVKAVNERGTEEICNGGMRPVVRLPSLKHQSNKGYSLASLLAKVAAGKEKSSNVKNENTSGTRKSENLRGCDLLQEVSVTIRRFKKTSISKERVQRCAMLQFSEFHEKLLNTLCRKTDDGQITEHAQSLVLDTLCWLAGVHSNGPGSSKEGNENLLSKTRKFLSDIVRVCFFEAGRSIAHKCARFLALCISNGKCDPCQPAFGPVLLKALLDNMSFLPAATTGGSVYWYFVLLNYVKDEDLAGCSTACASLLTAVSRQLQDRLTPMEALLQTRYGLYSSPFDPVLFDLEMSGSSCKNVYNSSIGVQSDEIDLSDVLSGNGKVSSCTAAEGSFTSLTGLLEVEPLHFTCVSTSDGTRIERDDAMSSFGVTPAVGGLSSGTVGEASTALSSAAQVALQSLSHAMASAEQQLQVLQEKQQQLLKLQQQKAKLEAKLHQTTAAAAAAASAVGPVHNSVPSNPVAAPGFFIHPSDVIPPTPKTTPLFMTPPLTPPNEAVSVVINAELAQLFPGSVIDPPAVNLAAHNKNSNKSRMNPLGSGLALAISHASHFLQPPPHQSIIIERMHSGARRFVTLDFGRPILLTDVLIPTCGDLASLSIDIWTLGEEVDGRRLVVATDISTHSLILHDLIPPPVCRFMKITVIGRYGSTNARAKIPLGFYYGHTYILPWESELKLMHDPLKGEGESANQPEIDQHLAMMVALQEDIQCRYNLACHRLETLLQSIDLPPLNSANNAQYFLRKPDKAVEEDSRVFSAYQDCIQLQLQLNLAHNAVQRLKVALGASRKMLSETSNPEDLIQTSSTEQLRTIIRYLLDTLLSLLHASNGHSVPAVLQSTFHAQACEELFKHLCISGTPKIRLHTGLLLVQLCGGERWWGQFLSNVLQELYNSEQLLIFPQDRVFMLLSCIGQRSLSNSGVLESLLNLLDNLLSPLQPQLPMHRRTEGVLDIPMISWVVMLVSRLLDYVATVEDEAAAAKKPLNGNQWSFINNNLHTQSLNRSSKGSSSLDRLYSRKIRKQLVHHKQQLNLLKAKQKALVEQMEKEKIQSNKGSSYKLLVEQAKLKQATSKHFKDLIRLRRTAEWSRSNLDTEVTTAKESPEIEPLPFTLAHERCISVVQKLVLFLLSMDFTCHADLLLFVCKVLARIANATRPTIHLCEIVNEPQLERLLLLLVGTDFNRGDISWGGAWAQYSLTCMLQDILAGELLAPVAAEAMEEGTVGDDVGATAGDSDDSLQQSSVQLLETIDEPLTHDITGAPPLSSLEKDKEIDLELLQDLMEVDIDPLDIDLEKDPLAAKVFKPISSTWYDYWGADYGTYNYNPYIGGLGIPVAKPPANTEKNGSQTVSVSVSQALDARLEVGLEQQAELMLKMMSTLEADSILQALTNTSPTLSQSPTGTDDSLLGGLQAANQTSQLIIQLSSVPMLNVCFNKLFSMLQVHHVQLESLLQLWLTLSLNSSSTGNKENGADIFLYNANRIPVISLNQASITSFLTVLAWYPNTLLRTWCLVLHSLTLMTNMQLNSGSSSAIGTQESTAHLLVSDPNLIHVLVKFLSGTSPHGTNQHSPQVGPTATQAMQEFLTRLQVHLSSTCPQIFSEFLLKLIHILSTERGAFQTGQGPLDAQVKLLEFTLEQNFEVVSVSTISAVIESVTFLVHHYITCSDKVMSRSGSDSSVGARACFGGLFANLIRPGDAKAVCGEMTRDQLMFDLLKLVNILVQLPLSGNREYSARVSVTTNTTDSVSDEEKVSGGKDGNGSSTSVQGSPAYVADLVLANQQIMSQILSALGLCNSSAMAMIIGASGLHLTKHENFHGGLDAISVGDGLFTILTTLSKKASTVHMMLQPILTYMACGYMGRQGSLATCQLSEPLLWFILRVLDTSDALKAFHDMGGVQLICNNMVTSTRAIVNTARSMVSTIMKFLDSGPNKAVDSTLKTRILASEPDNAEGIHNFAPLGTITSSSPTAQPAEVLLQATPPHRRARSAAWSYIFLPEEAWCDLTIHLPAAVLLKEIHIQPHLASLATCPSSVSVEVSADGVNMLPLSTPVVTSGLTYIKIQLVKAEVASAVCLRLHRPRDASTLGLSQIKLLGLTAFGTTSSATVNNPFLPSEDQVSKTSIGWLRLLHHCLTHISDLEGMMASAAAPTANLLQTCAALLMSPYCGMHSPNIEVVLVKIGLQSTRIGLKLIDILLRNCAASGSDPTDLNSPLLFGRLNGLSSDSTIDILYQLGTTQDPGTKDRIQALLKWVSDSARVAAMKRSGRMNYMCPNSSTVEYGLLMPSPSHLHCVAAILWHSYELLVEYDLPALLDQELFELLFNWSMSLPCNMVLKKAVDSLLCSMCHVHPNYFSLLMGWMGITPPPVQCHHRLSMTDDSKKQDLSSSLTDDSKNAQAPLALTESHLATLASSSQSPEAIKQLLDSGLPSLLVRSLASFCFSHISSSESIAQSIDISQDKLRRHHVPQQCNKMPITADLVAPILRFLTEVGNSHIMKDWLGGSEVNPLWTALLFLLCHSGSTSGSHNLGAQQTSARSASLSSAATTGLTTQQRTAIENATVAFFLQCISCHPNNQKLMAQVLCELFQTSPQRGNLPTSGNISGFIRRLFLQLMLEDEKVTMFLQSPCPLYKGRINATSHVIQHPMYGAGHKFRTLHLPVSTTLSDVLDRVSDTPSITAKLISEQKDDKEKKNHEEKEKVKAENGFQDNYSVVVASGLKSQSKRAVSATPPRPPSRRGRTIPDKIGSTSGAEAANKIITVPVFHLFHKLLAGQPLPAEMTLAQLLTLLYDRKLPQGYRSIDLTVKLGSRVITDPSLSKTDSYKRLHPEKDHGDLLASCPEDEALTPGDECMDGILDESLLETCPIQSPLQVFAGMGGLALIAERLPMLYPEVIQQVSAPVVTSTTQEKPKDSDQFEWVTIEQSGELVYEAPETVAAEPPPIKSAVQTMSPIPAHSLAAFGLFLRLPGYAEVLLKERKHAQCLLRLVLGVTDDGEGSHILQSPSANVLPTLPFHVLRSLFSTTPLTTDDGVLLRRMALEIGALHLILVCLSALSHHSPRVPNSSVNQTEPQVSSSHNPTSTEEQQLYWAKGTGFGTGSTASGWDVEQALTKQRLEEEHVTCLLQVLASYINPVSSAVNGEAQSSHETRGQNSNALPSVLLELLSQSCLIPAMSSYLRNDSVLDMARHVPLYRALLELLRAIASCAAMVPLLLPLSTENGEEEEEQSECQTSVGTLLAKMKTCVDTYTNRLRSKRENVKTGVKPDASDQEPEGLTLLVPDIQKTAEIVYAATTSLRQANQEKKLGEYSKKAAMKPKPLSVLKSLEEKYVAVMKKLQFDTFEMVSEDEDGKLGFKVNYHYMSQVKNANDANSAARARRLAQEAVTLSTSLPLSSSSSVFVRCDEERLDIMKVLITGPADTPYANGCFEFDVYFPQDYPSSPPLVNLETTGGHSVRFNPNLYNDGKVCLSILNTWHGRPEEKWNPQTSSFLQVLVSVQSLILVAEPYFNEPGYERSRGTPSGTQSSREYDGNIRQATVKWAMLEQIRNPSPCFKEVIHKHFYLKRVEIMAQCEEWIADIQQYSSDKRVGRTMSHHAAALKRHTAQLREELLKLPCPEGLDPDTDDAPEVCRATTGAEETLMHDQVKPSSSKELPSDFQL

Assays:
[1] = target: BIRC6 (human, wild type, recombinant) (human) (UniProt Q9NR09); assay: cross-linking
[2] = target: BIRC6 (human, wild type, recombinant) (human) (UniProt Q9NR09); assay: cryo-EM structure

SMAC (from UniProt Q9NR28)
binding [1]: binds | binding [2]: binds

These are yes or no findings as the source states them, for the method shown. A result given as binding can be weak or reduced; the word gives no strength.
